Data reported in paper PMC10266348.
Results are given in words; binding and its absence hold for the method and conditions named. In cells and extracts the contact can be indirect. Some results given as binding are weak or reduced against the parent protein; the word gives no strength.

By UniProt entry, the sequences of proteins in these tests, tags left out. Residues count along the entry.
UniProt P10923, residues 17-294: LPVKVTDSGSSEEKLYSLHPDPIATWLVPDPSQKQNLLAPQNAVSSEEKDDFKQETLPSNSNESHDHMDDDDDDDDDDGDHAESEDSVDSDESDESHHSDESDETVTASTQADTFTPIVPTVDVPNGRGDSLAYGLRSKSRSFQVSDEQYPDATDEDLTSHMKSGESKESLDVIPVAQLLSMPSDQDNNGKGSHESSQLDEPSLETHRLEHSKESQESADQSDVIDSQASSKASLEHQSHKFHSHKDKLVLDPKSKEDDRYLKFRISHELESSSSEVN
UniProt Q9R0P9: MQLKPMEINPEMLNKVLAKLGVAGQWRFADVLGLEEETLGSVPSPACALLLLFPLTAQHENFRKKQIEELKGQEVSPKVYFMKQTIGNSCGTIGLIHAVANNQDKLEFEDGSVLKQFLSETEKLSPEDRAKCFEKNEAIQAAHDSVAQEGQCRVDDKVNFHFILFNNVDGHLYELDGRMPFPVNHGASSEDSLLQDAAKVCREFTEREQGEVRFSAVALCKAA

Target: Osteopontin (mouse (endogenous in bone marrow-derived macrophages)) (UniProt P10923)
Assay: co-IP; endogenous proteins in BMMΦ lysate (Pierce IP Lysis Buffer); pre-cleared with TrueBlot Anti-Rabbit IP beads, primary antibody overnight at 4°C, beads washed with lysis buffer, SDS-PAGE and blot; GA-stimulated macrophages not included

binding: binds
Substance: ubiquitin carboxyl-terminal hydrolase isozyme 1 (from UniProt Q9R0P9 1-223) (enzyme)
